Source: patent publication US3998811A, “Optically active 1,4-benzodiazepines and process for the preparation thereof” (CRC Compagnia di Recerca Chimica S.A., priority 1971, dated 1976)

Legend:
mice = experiment: Anticonvulsant effect against maximal electroshock, mice; format: in vivo; settings: relative to chlordiazepoxide = 1.00, larger value = less effective
Method: The pharmacalogical activity of the novel compounds of this invention was evaluated by standard methods such as the anticonvulsant effect against pentylene tetrazole shock and maximal and minimal electroshock, muscle relaxing ability, the fighting test, and hypnotic effect. These standard test are described in detail in the literature, for example, in L. O. Randall, C. L. Schenkel, R. F. Banziger, Curr. Ther. Res., Clin. Exp., 590 (1965), and M. I. Gluckman, Curr. Ther. Res., Clin. Exp., 7,721 (1965).
This Example illustrates the pharmacological effectiveness of the compounds of this invention. A number of the compounds of this invention were tested for their pharmacological effect on the CNS by the procedures described above. Also tested were the corresponding racemic mixtures and three commercial tranquillizers:
The results of the tests are shown in Table IV wherein the relative potencies compared with that of chlordiazepoxide which is assigned an activity of 1.00. […] It can also be seen that the pharmaceutically active compounds of this invention compare favorably with some commercially useful tranquillizers and even surpass them in some respects.

LD 50 P.O., mice = settings: mouse, in vivo, po

CN1C(=O)CN=C(c2ccccc2)c2cc(Cl)ccc21 [Diazepam, 7-chloro-1,3-dihydro-1-methyl-5-phenyl-2H-1,4-benzodiazepine-2-one]
Relative potency, anticonvulsant effect, maximal electro shock (mice): 5.20 | LD50 (LD 50 P.O., mice): 800 mg/kg
